According to PubChem BioAssay (Tox21):
Values joined by “and” are separate entries in the source; they are usually repeats but may differ in a detail not shown here. Identical values can stand only once. The inconclusive results got no clear call from the source; some entries with a clear call stand among them for comparison. Potencies beside an inconclusive call are fits to weak or partial responses and may not hold up. Active and inactive are the calls of the source. Unless noted, calls follow the shape of the full dose curve.

System: not listed separately
Assay: cAMP Responsive Elements (CRE) small molecule antagonists, cell-based qHTS assay (AID 1963591; active = well fitted inhibition curve with a large enough effect in the signal ratio in the repeat runs, not every such curve was filed as active; inconclusive = weak or mixed curves, or effect the other way; the % refers to the signal ratio)
Conditions: CRE-bla HEK293T, beta-lactamase FRET ratio; activity change, negative = inhibition: at 92.4 µM (top of the series) unless noted
Procedure, shortened: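 Cells (CRE-bla HEK 293T, DMEM with 10% dialyzed FBS and 25 mM HEPES) are seeded and incubated 18 h. Compounds are added with NKH477 agonist at 0.25 uM final for 3 h, then FRET substrate for 2 h.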
% is scaled to controls: 0 for no effect and ±100 for the full control effect; potency is read from the fitted curve at half-maximal effect.

**Q.** Which activity change, negative = inhibition does the source give for `CCCCCC1C(=O)CCC1CC(=O)OC` (stereo not given) here?
**A.** Its activity change, negative = inhibition is inconclusive: 17.3%.

**Q.** With `CCOc1cc(OCC)c(C(C)=O)cc1OCC` as the molecule, how does the Potency read?
**A.** Its Potency is inconclusive: 16.9 µM [activator, partial curve].

**Q.** For `Cn1sccc1=O`, which activity change, negative = inhibition is on record?
**A.** The activity change, negative = inhibition was inconclusive: -30.3%.

**Q.** Which Potency does the source give for `COc1cccc(-c2ccc(/C=C\CN3CCCCCC3)cc2Cl)c1` here?
**A.** Its Potency is inconclusive: 54.2 µM [fluorescent, partial curve].

**Q.** For `CCCCCCCCCCCCSCCOCCO`, which “activity change, negative = inhibition” value is on record?
**A.** The value was inactive: -0.856% [at 42.4 µM].

**Q.** For `c1ccc(C[P+](c2ccccc2)(c2ccccc2)c2ccccc2)cc1`, which Potency is on record?
**A.** The Potency was inconclusive: 13.7 µM [rising, partial curve].

**Q.** With `OC[C@H]1O[C@@](CO)(O[C@H]2O[C@H](CO)[C@@H](O)[C@H](O)[C@H]2O)[C@@H](O)[C@@H]1O` as the molecule, how does the Potency read?
**A.** The Potency was “inactive”.

**Q.** Which “activity change, negative = inhibition” value does the source give for `O=C(c1ccc2c(c1)C(=O)OC2=O)c1ccc2c(c1)C(=O)OC2=O` here?
**A.** Its value is inactive: 2.08%.

**Q.** For `O=C(OCC1CCC2OC2C1)C1CCC2OC2C1` (stereo not given), which Potency is on record?
**A.** The Potency was inconclusive: 25.4 µM [activator, single point].

**Q.** For `Nc1ccc(C(=O)OCCCOC(=O)c2ccc(N)cc2)cc1`, which activity change, negative = inhibition is on record?
**A.** Its activity change, negative = inhibition is inconclusive: 1%.

**Q.** Which Potency does the source give for `C#C[C@]1(O)CC[C@H]2[C@@H]3CCC4=Cc5oncc5C[C@]4(C)[C@H]3CC[C@@]21C` here?
**A.** The Potency was inconclusive: 19.3 µM [activator, full curve].

**Q.** What about the activity change, negative = inhibition of the same molecule?
**A.** Its activity change, negative = inhibition is inconclusive: 19.7% [at 42.4 µM].

**Q.** With `COc1ccc(Nc2ccccc2)c(C)c1` as the molecule, how does the Potency read?
**A.** Its Potency is inconclusive: 45.2 µM [rising, partial curve].

**Q.** For `O=C(OCC(O)CO)c1ccccc1Nc1ccnc2c(C(F)(F)F)cccc12` (stereo not given), which Potency is on record?
**A.** The Potency was inconclusive: 5.96 µM [activator].

Target: Beta-2 adrenergic receptor (Homo sapiens) (UniProt P07550)
Assay: Adrenergic beta2 receptor (ADRB2) small molecule antagonists, cell-based qHTS assay (AID 1963592); also: nearly all actives have a fitted effect of over 50% in size
Conditions: CHO-ADRB2 cells, isoproterenol-stimulated cAMP HTRF ratio, 0.5 h; activity change, negative = inhibition: at 92.4 µM (top of the series) unless noted
Procedure, shortened: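 Assay format: CHO-ADRB2 cells, 18-20hr seeding at 37C/5% CO2, then compound plus 1nM isoproterenol agonist mix for 0.5hr RT. Homogeneous time-resolved fluorescence cAMP detection after 1hr, expressed as 665/615 nm ratio.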

**Q.** Which Potency does the source give for `CN(C)C/C=C(/c1ccc(Br)cc1)c1cccnc1` here?
**A.** Its Potency is inconclusive: 2.98 µM [inhibitor, single point].

**Q.** Which “activity change, negative = inhibition” value does the source give for `CCOC(C)=O` here?
**A.** The value was inactive: 4.15%.

**Q.** Which activity change, negative = inhibition does the source give for `OCCN(CCO)c1ccccc1` here?
**A.** The activity change, negative = inhibition was inconclusive: 0.84%.

**Q.** With `COc1cccc(-c2ccc(/C=C\CN3CCCCCC3)cc2Cl)c1` as the molecule, how does the “activity change, negative = inhibition” value read?
**A.** Its value is inactive: -24.9%.

**Q.** For `CC(=O)[C@H]1CC[C@H]2[C@@H]3C=CC4=CC(=O)CC[C@@]4(C)[C@@H]3CC[C@]12C`, which “activity change, negative = inhibition” value is on record?
**A.** Its value is inactive: 0% [at 42.5 µM].

**Q.** With `COc1ccc(Nc2ccccc2)c(C)c1` as the molecule, how does the activity change, negative = inhibition read?
**A.** The activity change, negative = inhibition was inconclusive: -26.8%.

Target: Beta-2 adrenergic receptor (Homo sapiens) (UniProt P07550)
Assay: Adrenergic beta2 receptor (ADRB2) small molecule agonists, cell-based qHTS assay (AID 1963593);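 as to activation: CHO cells stably overexpressing human ADRB2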
Conditions: CHO-ADRB2 cells, cAMP HTRF, 30 min; activation: at 92.4 µM (top of the series) unless noted
Procedure, shortened: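 CHO cells stably over-expressing ADRB2 were plated overnight at 37C, then dosed with compounds plus a stimulation mix containing 100uM IBMX and 25uM Ro-20-1724 for 0.5hr at room temperature. cAMP was measured by HTRF competition, 1hr.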

**Q.** For `CCCCCC1C(=O)CCC1CC(=O)OC` (stereo not given), which activation is on record?
**A.** Its activation is inconclusive: 5.31%.

**Q.** With `CN(C)C/C=C(/c1ccc(Br)cc1)c1cccnc1` as the molecule, how does the “activation” value read?
**A.** Its value is inactive: -31.6% [at 42.5 µM].

**Q.** Which activation does the source give for `C=CC1CC2C=CC1C2` (stereo not given) here?
**A.** The activation was inconclusive: 9.82%.

**Q.** For `CCOC(C)=O`, which Potency is on record?
**A.** The Potency was inconclusive: 6.14 µM [inhibitor].

**Q.** Which activation does the source give for `Cn1sccc1=O` here?
**A.** The activation was inconclusive: 28.6%.

**Q.** Which activation does the source give for `CCCOC(C(=O)OC1CCN(C)CC1)(c1ccccc1)c1ccccc1` here?
**A.** The activation was inconclusive: 12.5% [at 42.5 µM].

**Q.** With `OCCN(CCO)c1ccccc1` as the molecule, how does the activation read?
**A.** Its activation is inconclusive: -31.3%.

**Q.** With `CCCCCCOCCO` as the molecule, how does the Potency read?
**A.** Its Potency is inconclusive: 6.18 µM [inhibitor, single point] and inactive.

**Q.** With `CC(C)=NNC(N)=S` as the molecule, how does the “activation” value read?
**A.** Its value is inactive: 16.5%.

**Q.** Which “activation” value does the source give for `COc1cccc(-c2ccc(/C=C\CN3CCCCCC3)cc2Cl)c1` here?
**A.** The value was inactive: 0.982%.

**Q.** For `CC(=O)Nc1ccc(C)cc1C`, which activation is on record?
**A.** The activation was inconclusive: 10.6%.

**Q.** For `CCCCCCCCCCCCSCCOCCO`, which “activation” value is on record?
**A.** Its value is inactive: 15.7% [at 42.5 µM].

**Q.** With `c1ccc(C[P+](c2ccccc2)(c2ccccc2)c2ccccc2)cc1` as the molecule, how does the “activation” value read?
**A.** Its value is inactive: -72.8%.

**Q.** For `CCCC(C)C=O` (stereo not given), which Potency is on record?
**A.** The Potency was inconclusive: 0.611 µM [inhibitor, partial curve, poor fit].

**Q.** With `OC[C@H]1O[C@@](CO)(O[C@H]2O[C@H](CO)[C@@H](O)[C@H](O)[C@H]2O)[C@@H](O)[C@@H]1O` as the molecule, how does the activation read?
**A.** Its activation is inconclusive: 22.9% and inconclusive: 6.08%.

**Q.** For `C[N+](C)(C)CCO`, which activation is on record?
**A.** Its activation is inconclusive: 4.61%.

**Q.** Which activation does the source give for `O=CN1CCOCC1` here?
**A.** Its activation is inconclusive: 1.93%.

**Q.** For `CCCCCCCCCCO[C@@H]1O[C@H](CO)[C@@H](O)[C@H](O)[C@H]1O`, which activation is on record?
**A.** Its activation is inconclusive: -61.2%.

**Q.** For `OCCc1ccncc1`, which “activation” value is on record?
**A.** The value was inactive: 1.27%.

**Q.** With `C1=CCCC1` as the molecule, how does the activation read?
**A.** The activation was inconclusive: -22.3%.

**Q.** Which “activation” value does the source give for `CCCCCCCCC(=O)OCC` here?
**A.** The value was inactive: 5.2%.

**Q.** For `O=C(O)CC(=O)C(=O)O`, which activation is on record?
**A.** Its activation is inconclusive: 22.4%.

**Q.** Which activation does the source give for `O=C(c1ccc2c(c1)C(=O)OC2=O)c1ccc2c(c1)C(=O)OC2=O` here?
**A.** The activation was inconclusive: -2.6%.

**Q.** For `O=C(OCC1CCC2OC2C1)C1CCC2OC2C1` (stereo not given), which activation is on record?
**A.** Its activation is inconclusive: -23.7% and inconclusive: -19.5%.

**Q.** With `Cc1cc(C)cc([N+](=O)[O-])c1` as the molecule, how does the activation read?
**A.** Its activation is inconclusive: -51.6%.

**Q.** With `CCOc1nc(F)cc2nc(S(=O)(=O)Nc3c(Cl)cccc3C(=O)OC)nn12` as the molecule, how does the Potency read?
**A.** The Potency was inconclusive: 27.3 µM [inhibitor, single point].

**Q.** Which activation does the source give for `Nc1ccc(C(=O)OCCCOC(=O)c2ccc(N)cc2)cc1` here?
**A.** Its activation is inconclusive: 7.29%.

**Q.** Which Potency does the source give for `C#C[C@]1(O)CC[C@H]2[C@@H]3CCC4=Cc5oncc5C[C@]4(C)[C@H]3CC[C@@]21C` here?
**A.** Its Potency is inconclusive: 486 nM [inhibitor, full curve, poor fit] and inconclusive: 26.6 µM [inhibitor, partial curve, poor fit].

**Q.** Which activation does the source give for `c1ccc(COCc2ccccc2)cc1` here?
**A.** The activation was inconclusive: -21.4%.

**Q.** Which “activation” value does the source give for `CC(=O)[C@H]1CC[C@H]2[C@@H]3C=CC4=CC(=O)CC[C@@]4(C)[C@@H]3CC[C@]12C` here?
**A.** Its value is inactive: -37.7% [at 42.5 µM].

**Q.** Which activation does the source give for `CN(C)CCOC(=O)COc1ccc(Cl)cc1` here?
**A.** Its activation is inconclusive: 20.9%.

**Q.** For `COc1ccc(Nc2ccccc2)c(C)c1`, which activation is on record?
**A.** Its activation is inconclusive: 3.81%.

**Q.** With `CCCCCCCCCCCCCCCCCCOS(=O)(=O)O` as the molecule, how does the activation read?
**A.** The activation was inconclusive: -0.494%.

**Q.** For `CCOc1ccc(C(=O)OCCN(CC)CC)cc1`, which “activation” value is on record?
**A.** The value was inactive: -15.5% [at 42.5 µM].

**Q.** For `O=C(OCC(O)CO)c1ccccc1Nc1ccnc2c(C(F)(F)F)cccc12` (stereo not given), which activation is on record?
**A.** The activation was inconclusive: -46.9% [at 42.5 µM].
